Measurements: PubChem BioAssay AID504834 (National Center for Advancing Translational Sciences (NCATS), 2011)
About 22,000 (6.9%) of roughly 320,000 compounds were called active. The shares of active, inactive and inconclusive entries below differ from those in the screen. Calls follow the shape of the dose curve; as a rule, active = well fitted inhibition curve with a large enough effect; inconclusive = small, poorly fitted or top-dose-only effect, or another doubt; inactive = no such curve, though single readings can be large or run the other way. Potencies of inconclusive entries are doubtful fits and often do not repeat.

Assay: Primary qHTS for delayed death inhibitors of the malarial parasite plastid, 96 hour incubation
Conditions: P. falciparum luciferase reporter growth; series mostly up to 28.7 µM; activity change, negative = inhibition: at the top concentration
Method in brief: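 Compounds incubated with erythrocytes infected by luciferase-expressing P. falciparum (2% hematocrit, 0.05% parasitemia final) for 96 hours, 37 C in 5% CO2. Growth inhibition scored as decreased luciferase luminescence.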
% is scaled to controls: 0 for no effect and ±100 for the full control effect; potency is read from the fitted curve at half-maximal effect.

| Compound | activity change, negative = inhibition | Potency |
| --- | --- | --- |
| CCc1nc(CNC(=O)C2CCC(=O)N(Cc3cccc(OC)c3)C2)no1 (configuration not stated) | inactive: -14.2% |  |
| COc1cccc(CNC(=S)Nc2cc(C)ccc2C)c1 | inactive: -7.12% [at 5.75 µM] |  |
| Nc1ccc(C(=O)O)c(O)c1 |  | inconclusive: 4.26 µM [inhibitor, partial curve, poor fit] |
| CC(C)(CO)Nc1ncnc2onc(-c3ccc(F)cc3)c12 |  | inconclusive: 10.4 µM [inhibitor, single point] |
| CN(CC(=O)Nc1cccc(F)c1)C(=O)c1ccccc1-n1cnnn1 | inactive: 8.56% |  |
| CCc1cccc(NC(=O)CN(C)S(=O)(=O)c2cccc3cccnc23)c1 | inactive: 0.499% |  |
| Nc1cc(=O)[nH]c(=O)n1CCc1ccccc1 |  | inconclusive: 1.85 µM [inhibitor, partial curve, poor fit] |
| COCCNc1nc2c(S(=O)(=O)c3cc(C)ccc3C)nnn2c2ccccc12 |  | inconclusive: 16.5 µM [inhibitor, single point] |
| COc1cccc(NC(=O)CCc2nnc3ccc(N4CCN(c5cccc(OC)c5)CC4)nn23)c1 |  | inconclusive: 4.65 µM [inhibitor, partial curve] |
| COc1ccc(-c2ccc(=O)n(Cc3ccc([N+](=O)[O-])cc3)n2)cc1 | inactive: 8.56% |  |
| CCOc1cccc(CN(C)CC2CCCN(CCc3ccc(Cl)cc3)C2)c1O (configuration not stated) |  | active: 1.47 µM |
| CCOc1ccc(NC2OC(CO)C(O)C(O)C2O)c([N+](=O)[O-])c1 (configuration not stated) | inactive: 5.15% |  |
| Cc1ccc(C(=O)C2=C(O)C(=O)N(Cc3cccnc3)C2c2cccc([N+](=O)[O-])c2)o1 (configuration not stated) |  | inconclusive: 11.7 µM [inhibitor, single point] |
| CC1CCN(C2=C(NS(=O)(=O)c3ccccc3)C(=O)c3ccccc3C2=O)CC1 |  | inconclusive: 10.4 µM [inhibitor, partial curve] |
| CCn1c(CC(=O)Nc2ccc(C)c(Cl)c2)nnc1SCCOc1ccc(OC)cc1 |  | inconclusive: 0.294 µM [inhibitor, full curve, poor fit] |
| Cc1ccc2cc(CN(Cc3ccco3)S(=O)(=O)c3c(C)ccc4nsnc34)c(=O)[nH]c2c1 | inactive: 3.65% |  |
| CCCCCC1CC(CC(=O)Nc2nncs2)C(=O)O1 (configuration not stated) |  | active: 7.38 µM |
| Cc1ccc(CNC(=O)CSc2nc3ccsc3c(=O)n2Cc2ccc(C(=O)O)cc2)cc1 |  | inconclusive: 14.7 µM [inhibitor, single point] |
| Cc1cc(C)cc(C(=O)N(NC(=O)Nc2ccc(Cl)cc2)C(C)(C)C)c1 |  | inconclusive: 2.62 µM [inhibitor, partial curve] |
| Cc1cccc2sc(NC(=O)C3c4ccccc4Oc4ccccc43)nc12 |  | inconclusive: 10.4 µM [inhibitor, single point] |
| O=C(N/N=C/c1sc(=O)n(-c2ccccc2)c1Cl)c1ccccc1 |  | active: 2.33 µM |
| Clc1ccc(-n2nnnc2SCc2c(-c3ccccc3)nc3sccn23)cc1 |  | inconclusive: 14.7 µM [inhibitor, partial curve, poor fit] |
| CN(CCCC1CCCC1)C(=O)CC1C(=O)NCCN1Cc1ccc(F)cc1 (configuration not stated) |  | inconclusive: 0.37 µM [inhibitor, full curve] |
| CN(C(=O)c1ccc2c(=O)n3c(nc2c1)CCCCC3)c1ccccc1F |  | inconclusive: 4.15 µM [inhibitor, single point] |

Shown as comma-separated lines: part of the list above.
Compound,"activity change, negative = inhibition",Potency
COc1ccc(-c2ccc(=O)n(Cc3ccc([N+](=O)[O-])cc3)n2)cc1,inactive: 8.56%,
CCn1c(CC(=O)Nc2ccc(C)c(Cl)c2)nnc1SCCOc1ccc(OC)cc1,,"inconclusive: 0.294 µM [inhibitor, full curve, poor fit]"
Cc1cc(C)cc(C(=O)N(NC(=O)Nc2ccc(Cl)cc2)C(C)(C)C)c1,,"inconclusive: 2.62 µM [inhibitor, partial curve]"
CN(CCCC1CCCC1)C(=O)CC1C(=O)NCCN1Cc1ccc(F)cc1 (configuration not stated),,"inconclusive: 0.37 µM [inhibitor, full curve]"

Following part.

| Compound | activity change, negative = inhibition | Potency |
| --- | --- | --- |
| Cc1cccc([C@@H]2[C@@H]3C(=O)N(Cc4ccccc4)C(=O)[C@@H]3[C@]3(CC(C)C)C(=O)N(c4cccc(F)c4)C(=O)N23)c1 |  | inconclusive: 4.65 µM [inhibitor, partial curve, poor fit] |
| FC(F)(F)c1cc(-c2ccccc2)nc(NCc2cccnc2)n1 |  | inconclusive: 18.5 µM [inhibitor, single point] |
| C=CCSc1nc2c(c(=O)[nH]c(=O)n2C)n1C/C=C(/C)Cl |  | inconclusive: 4.15 µM [inhibitor, partial curve] |
| O=C(c1cccc(C(F)(F)F)c1)N1CCN(c2cc(=O)[nH]nc2-c2ccccc2)CC1 |  | inconclusive: 0.147 µM [inhibitor, full curve, poor fit] |
| Cc1cc(-c2nnc(SCC(=O)Nc3ccc(F)cc3F)n2N)n[nH]1 | inactive: -1.41% |  |
| CCn1cc(C(=O)O)c(=O)c2cnc(N3CCN(C(=O)Nc4cccc5ccccc45)CC3)nc21 |  | inconclusive: 18.5 µM [inhibitor, single point] |
| COc1cc(/C=C(\C#N)C(=O)Nc2ccccc2F)ccc1OCCN1CCOCC1 | inactive: -9.55% |  |
| CCCNS(=O)(=O)c1ccc(C(=O)NCC2CCCO2)cc1 (configuration not stated) |  | inconclusive: 4.15 µM [inhibitor, single point] |
| CNC(=O)CN(c1ccc(F)cc1)S(=O)(=O)c1cc(C)ccc1OC |  | inconclusive: 18.5 µM [inhibitor, partial curve, poor fit] |
| COc1ccc(N2CCN(S(=O)(=O)c3cc4c(cc3C)N(C(C)=O)CCO4)CC2)cc1 | inactive: -15.2% |  |
| COc1ccc(N2C(=S)N=C(Nc3cccc(C)c3)C23CCCCC3)cc1 |  | inconclusive: 11.7 µM [inhibitor, single point] |
| Cc1cc(OCc2cc(C(=O)NCC3(C)COC3)no2)cc(C)c1Cl |  | inconclusive: 9.28 µM [inhibitor, partial curve, poor fit] |
| O=C(N/N=C\c1cccc(Cl)c1)c1ccc(Cn2cc(Br)c([N+](=O)[O-])n2)o1 |  | inconclusive: 18.5 µM [inhibitor, single point] |
| CCC(CC)N1CCN(S(=O)(=O)c2ccc(OC)cc2)CC1 |  | inconclusive: 0.522 µM [inhibitor, full curve, poor fit] |
| Cc1ccc(/C=C2\Sc3ccccc3C2=O)s1 | inactive: -2.75% |  |
| COc1ccc(C(=O)CN2CC(C)SC2=Nc2ccc(Cl)cc2)cc1 (configuration not stated) |  | inconclusive: 10.4 µM [inhibitor, single point] |
| COc1ccc(Oc2ccccc2/C=C/C(=O)O)cc1 | inactive: 0% |  |
| C/C(=N\NC(=O)c1ccc(Cl)c(Cl)c1)c1ccccn1 |  | inconclusive: 2.94 µM [inhibitor, full curve] |
| COc1ccccc1OCc1ccc(C(=O)n2nc(C)c(Cl)c2C)o1 | inactive: 226% |  |
| CN1C(=O)NC(c2ccccc2)C2=C1CN(c1ccc3ccccc3c1)C2=O (configuration not stated) | inactive: 94.2% |  |
| CN(C)C(=O)C1Cc2ccccc2CN1S(=O)(=O)c1cccs1 (configuration not stated) | inactive: 35.7% |  |
| Cc1ccc2c(c1)N(S(=O)(=O)c1ccc3c(c1)NC(=O)CC(=O)N3)CCO2 |  | active: 8.28 µM |
| CC(C(=O)NC1CCCC1)N1CCN(S(=O)(=O)c2ccccc2Cl)CC1 (configuration not stated) |  | inconclusive: 11.7 µM [inhibitor, single point] |
| COc1ccc(/C=C(/NC(=O)c2ccco2)C(=O)N2CCOCC2)cc1 |  | inconclusive: 13.1 µM [inhibitor, single point] |

| Compound | activity change, negative = inhibition | Potency |
| --- | --- | --- |
| COc1ccccc1CN1C(=NC(=O)C2CCCCC2)SC2CS(=O)(=O)CC21 (configuration not stated) | inactive: 36% |  |
| CCCN(CC(=O)Nc1ccc(F)c(F)c1F)C(=O)c1ccc(=O)n(Cc2ccccc2)n1 |  | inconclusive: 4.15 µM [inhibitor, partial curve] |
| C/C(NCc1cccnc1)=C(\C#N)C(=O)NCc1ccccc1 | inactive: -15.8% |  |
| Oc1c(C=Nc2ccccc2)sc2ccccc12 | inactive: 38.4% |  |
| COc1cc(CNCC(C)C)c(Br)cc1OCC(=O)NCc1ccccc1 |  | inconclusive: 11.7 µM [inhibitor, single point] |
| CCCc1cc(CNC(=O)C2CCC(=O)N(Cc3ccccc3OC)C2)on1 (configuration not stated) | inactive: -23.5% |  |
| Fc1ccc2nc3[nH]c4ccccc4c3nc2c1 | inactive: -9.56% |  |
| CCCCC(=O)Nc1nn(CCC)c2nc3ccccc3cc12 |  | inconclusive: 18.5 µM [inhibitor, single point] |
| O=C(CCC1N=C2c3ccccc3N=C(SCc3ccc(F)cc3)N2C1=O)NCc1ccco1 (configuration not stated) |  | inconclusive: 1.85 µM [inhibitor, single point] |
| COc1ccc([N+](=O)[O-])cc1NC(=O)Cc1ccc(Cl)cc1 |  | active: 10.4 µM |
| COCCNC(=O)c1ccc(CSCc2cccc(Cl)c2)o1 |  | inconclusive: 10.4 µM [inhibitor, single point] |
| COc1ccc(CNC(=O)c2nc(S(=O)(=O)Cc3ccccc3)ncc2Cl)cc1 | inactive: 43.6% |  |
| O=C(CSCC(=O)N1CCOCC1)Nc1ccccc1 | inactive: 16.4% |  |
| O=C(OCc1ccc([N+](=O)[O-])cc1Cl)c1cnccn1 |  | inconclusive: 14.7 µM [inhibitor, single point] |
| CCN(CC)S(=O)(=O)c1ccc2c(c1)c(=O)c(C(=O)NCc1ccc3c(c1)OCO3)cn2C | inactive: -5.19% |  |
| CCN(CC)S(=O)(=O)c1cccc(C(=O)NC(Cc2c[nH]c3ccccc23)c2nnc3n2CCC3)c1 (configuration not stated) |  | active: 8.28 µM |
| CC(C)(C)c1cc(C(=O)NN)n(Cc2ccc(Cl)cc2Cl)n1 |  | inconclusive: 13.1 µM [inhibitor, single point] |
| O=S(=O)(NCc1ccccc1)NCc1ccccc1 | inactive: 1.72% |  |
| CC(CNc1nc2ccc(Cl)cc2n2cnnc12)c1ccccc1 (configuration not stated) |  | inconclusive: 1.65 µM [inhibitor, full curve] |
| CCOc1ccc(N2CC(O)(c3ccc(F)cc3)[N+]3=C2CCCC3)cc1 (configuration not stated) |  | inconclusive: 9.28 µM [inhibitor, single point] |
| COc1ccc(OCCCn2c(=O)oc3ccccc32)cc1 | inactive: -16.1% |  |
| CCC(OC(=O)c1cccs1)C(=O)NCc1ccc(C)cc1 (configuration not stated) |  | inconclusive: 18.5 µM [inhibitor, single point] |
| CCOc1ccccc1-n1c(SCC(=O)Nc2nccs2)nnc1-c1ccoc1C |  | inconclusive: 7.38 µM [inhibitor, partial curve, poor fit] |
| Cc1ccccc1Nc1nc(N)nc(CSc2nnc(-c3ccccc3)n2C)n1 |  | active: 13.1 µM |
